Measured values published in PubChem BioAssay AID504834 (National Center for Advancing Translational Sciences (NCATS), 2011).
In all, about 320,000 compounds went through this assay and about 22,000 (6.9%) were called active. Inconclusive means that the source gave no clear call. Such entries were picked first, then a sample of the others. The call rests on the fitted dose curve; in most records, active means well fitted inhibition curve with a large enough effect; inconclusive means small, poorly fitted or top-dose-only effect, or another doubt; inactive means no such curve, though single readings can be large or run the other way. Where the call is inconclusive, the potency comes from a doubtful curve fit.

assay: Primary qHTS for delayed death inhibitors of the malarial parasite plastid, 96 hour incubation; conditions: P. falciparum luciferase reporter growth; series mostly up to 28.7 µM; activity change, negative = inhibition: at the top concentration
In short: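 P. falciparum expressing integrated firefly luciferase grown in erythrocytes (2% hematocrit, 0.05% parasitemia final) with compounds for 96 hours at 37 C, 5% CO2. Growth inhibition read as loss of luminescence after adding luciferase detection reagent.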
On the % scale 0 is the no-effect control and ±100 the full control effect; potency means the concentration at half of the fitted maximal effect.

Row | Compound | Potency | activity change, negative = inhibition
1 | CC(C)OCCCNC(=O)c1ccc2c(c1)ncn2C1CCCC1 | inconclusive: 18.5 µM [inhibitor, single point] | 
2 | CCN(Cc1ccc2c(c1)OCCO2)S(=O)(=O)c1ccc(NC(C)=O)cc1 | inconclusive: 9.28 µM [inhibitor, single point] | 
3 | CCOC(=O)Cc1csc(NC(=O)c2sc3nc4ccc(CC)cc4cc3c2N)n1 |  | inactive: 35.5%
4 | O=C(Nc1ccccc1)Nc1csc2ccccc12 | inconclusive: 18.5 µM [inhibitor, single point] | 
5 | COC(=O)c1cccc(NC(=S)NCCC2=CCCCC2)c1 | active: 11.7 µM | 
6 | N=c1c[n+](CC23CC4CC(CC(C4)C2)C3)[n-]o1 | inconclusive: 11.7 µM [inhibitor, partial curve] | 
7 | Cc1ccccc1Cn1c(CN2CCN(c3ccc(F)cc3)CC2)nc2c1c(=O)n(C)c(=O)n2C | inconclusive: 10.4 µM [inhibitor, partial curve] | 
8 | O=C(NCC1CCCO1)c1ccccn1 (centres undefined) |  | inactive: -24.4%
9 | O=C(COc1ccc(Br)cc1Cl)NCCCN1CCOCC1 | inconclusive: 9.28 µM [inhibitor, single point] | 
10 | COc1ccccc1CN1CC(C(=O)N2CCC(OC)CC2)CCC1=O (centres undefined) | inconclusive: 18.5 µM [inhibitor, single point] | 
11 | COc1cc(C(CCN2CCCC2)c2c(OC)cc(OC)c3c(C)cc(=O)oc23)cc(OC)c1OC (centres undefined) | active: 9.28 µM | 
12 | CCN1CCN(CC(=O)N2N=C(c3cccs3)CC2c2ccc(C)cc2)C(=O)C1=O (centres undefined) | inconclusive: 18.5 µM [inhibitor, single point] | 
13 | O=C(CSc1nnc2c(n1)[nH]c1ccccc12)OCc1ccccc1 | inconclusive: 0.131 µM [inhibitor, full curve, poor fit] | 
14 | O=C(NCCNC(=O)c1cc(Cl)ccc1Cl)c1cnccn1 |  | inactive: 7.18%
15 | CC(C)N(C(=O)NC(=O)Nc1ccc(S(=O)(=O)N2CCCC2)cc1)S(C)(=O)=O | inconclusive: 10.4 µM [inhibitor, single point] | 
16 | CC(C)(C)c1ccccc1NC(=O)c1ccc(-n2cncn2)c([N+](=O)[O-])c1 |  | inactive: -2.96%
17 | CN(C)CCCNc1cc(O)c2ncccc2c1 | active: 4.65 µM | 
18 | Cc1cc(C)cc(NC(=O)CN(c2ccc(F)cc2)S(C)(=O)=O)c1 | inconclusive: 11.7 µM [inhibitor, single point] | 
19 | CCOC(=O)c1cc(-c2ccccc2)sc1NC(=O)CN1C(=O)NC(CC)(c2ccccc2)C1=O (centres undefined) | inconclusive: 13.1 µM [inhibitor, single point] | 
20 | CCOC(=O)c1sc2nc3c(SCCC(=O)O)cc(C(=O)c4cc(OC)ccc4O)cn3c(=O)c2c1C | inconclusive: 7.38 µM [inhibitor, partial curve, poor fit] | 
21 | COC(=O)CSc1nnc2c3c4c(sc3nc(-n3nc(C)cc3C)n12)COC(C)(C)C4 | inconclusive: 9.28 µM [inhibitor, single point] | 
22 | COC(=O)c1cc(S(=O)(=O)Nc2ccc(C)cn2)c[nH]1 | inconclusive: 5.22 µM [inhibitor, partial curve, poor fit] | 
23 | COCCn1c(=NC(=O)c2ccc(S(=O)(=O)N3CCc4ccccc4C3)cc2)sc2cc(OC)ccc21 | active: 5.22 µM | 
24 | CCOC(=O)c1sc(NC(=O)C(C)Sc2nc(N)cc(=O)[nH]2)nc1C (centres undefined) |  | inactive: 35.4%
25 | CCC(C)(C(=O)NC1CCCC1)N(C)C(=O)Cc1c[nH]c2ccccc12 (centres undefined) | inconclusive: 3.29 µM [inhibitor, full curve, poor fit] | 

A different layout for some results above.
O=C(COc1ccc(Br)cc1Cl)NCCCN1CCOCC1
  Potency: inconclusive: 9.28 µM [inhibitor, single point]
COc1ccccc1CN1CC(C(=O)N2CCC(OC)CC2)CCC1=O (centres undefined)
  Potency: inconclusive: 18.5 µM [inhibitor, single point]
COc1cc(C(CCN2CCCC2)c2c(OC)cc(OC)c3c(C)cc(=O)oc23)cc(OC)c1OC (centres undefined)
  Potency: active: 9.28 µM

(next part)

Row | Compound | Potency | activity change, negative = inhibition
26 | CC(=O)OCCCN1C(=O)c2cccc3cc(Br)cc(c23)C1=O |  | inactive: -0.0825%
27 | COc1ccc(NC(=O)c2ccc3c(c2)n(C)c(=O)n3C)cc1 | inconclusive: 11.7 µM [inhibitor, single point] | 
28 | Cc1nnc(NC(=O)CC(C)c2ccccc2)s1 (centres undefined) | inconclusive: 18.5 µM [inhibitor, single point] | 
29 | c1ccc(CN2c3ccccc3-c3nc4ccccc4n3C2c2ccccn2)cc1 (centres undefined) | active: 4.15 µM | 
30 | O=c1[nH]c(=S)n(-c2ccc(Cl)cc2)c(O)c1C=Nc1ccc(N2CCOCC2)cc1 | inconclusive: 10.4 µM [inhibitor, single point] | 
31 | CC(C)COc1ccc(C(=O)Nc2ccccc2[N+](=O)[O-])cc1 | active: 10.4 µM | 
32 | COc1ccc(C(=O)Nc2nnc(C3=COCCO3)o2)cc1 | inconclusive: 13.1 µM [inhibitor, single point] | 
33 | CCCOC(=O)C[N+](C)(C)CCOC1CC2CCC1(C)C2(C)C (centres undefined) | active: 1.47 µM | 
34 | CCc1sc(C(=O)Nc2cccc(C(C)=O)c2)cc1C |  | inactive: 72.2%
35 | Cc1ccc(N(C)C(=O)C2CCCN2S(=O)(=O)c2ccc3c(c2)n(C)c(=O)c(=O)n3C)cc1 (centres undefined) |  | inactive: -0.454%
36 | Cc1nn(CC(=O)Nc2ccc(Cl)cc2)c(=O)c2cc(-c3ccccc3)nn12 | inconclusive: 13.1 µM [inhibitor, single point] | 
37 | CCOC(=O)C1CCN(C(=O)c2cccc(S(=O)(=O)NCc3ccccc3)c2)CC1 | inconclusive: 18.5 µM [inhibitor, single point] | 
38 | Cc1cc(C(=O)NC2CC(C)(C)Cc3c2cnn3-c2cccc(F)c2)nn1C (centres undefined) |  | inactive: 2.27%
39 | CCc1ccc(C(=O)Nc2cccc(-c3nn[nH]n3)c2)s1 |  | inactive: 45.3%
40 | O=C(NCCCN1CCCCC1)c1ccc2c(=O)n(CCc3ccccc3)c(=O)[nH]c2c1 |  | inactive: 42.3%
41 | NNC(=O)c1ccc(COc2cccc3ccccc23)cc1 | inconclusive: 11.7 µM [inhibitor, single point] | 
42 | CC(=O)N(c1ccc(C)cc1)c1nc(C)cc(C)c1C#N |  | inactive: 39.9%
43 | COc1ccc(CNC(=O)OCCN2CCN(S(=O)(=O)c3ccc(C)cc3)CCC2=O)cc1 | inconclusive: 18.5 µM [inhibitor, single point] | 
44 | CC(=O)c1coc2c1cc(O)c1ccccc12 | inconclusive: 18.5 µM [inhibitor, single point] | 
45 | O=C(O)CCN(CC(=O)c1ccc(Cl)cc1)S(=O)(=O)c1ccc([N+](=O)[O-])cc1 |  | inactive: 31.6%
46 | C/C(=N\NC(=O)C(O)c1ccccc1)c1ccc(Cl)cc1 (centres undefined) | active: 4.15 µM | 
47 | CCOc1ccc(/C=N/NC(=O)C(=O)NCc2ccco2)cc1 | inconclusive: 5.86 µM [inhibitor, partial curve, poor fit] | 
48 | C=CCn1c(Cc2cccs2)nnc1SCC(=O)Nc1ccc(C(=O)OCC)cc1 | inconclusive: 18.5 µM [inhibitor, single point] | 
49 | Cc1nn(-c2ccccc2)c2c1C(c1ccc(Cl)cc1)N(c1ccccc1)C(=O)N2 (centres undefined) | active: 13.1 µM | 
50 | CCC(C(=O)Nc1ccc2c(c1)OCCO2)n1nnc2ccccc2c1=O (centres undefined) |  | inactive: 126%

Row | Compound | Potency | activity change, negative = inhibition
51 | Cc1ccc(OCC(=O)NNC(=S)NC(=O)C2CCCCC2)c(C)c1 | inconclusive: 18.5 µM [inhibitor, single point] | 
52 | O=C(NNC(=O)c1cc([N+](=O)[O-])ccc1Cl)c1cccnc1 | inconclusive: 14.7 µM [inhibitor, single point] | 
53 | CCN(CC)S(=O)(=O)c1cccc(NC(=S)NC(=O)/C=C/c2ccc(S(=O)(=O)N3CCOCC3)cc2)c1 | active: 4.65 µM | 
54 | NC(=O)c1oc2ccccc2c1NC(=O)c1ccccc1 | inconclusive: 18.5 µM [inhibitor, single point] | 
55 | COc1cc(NC(=O)c2ccc3c(c2)S(=O)(=O)N=C2CCCCCN23)cc(OC)c1 |  | inactive: -8.92%
56 | CCN(C(=O)COC(=O)CCOc1cccc(C)c1)c1c(N)n(Cc2ccccc2)c(=O)[nH]c1=O |  | inactive: 25.4%
57 | CCc1nnc(NC(=O)CSc2n[nH]c(-c3ccccc3O)n2)s1 |  | inactive: -2.42%
58 | Cn1nnnc1Sc1ncnc2scc(-c3cccs3)c12 | inconclusive: 1.47 µM [inhibitor, full curve, poor fit] | 
59 | O=C1CN(C(=O)NCCC(=O)NC2CCCCC2)c2ccccc2N1 |  | inactive: -23.1%
60 | COc1ccc(C(=O)N2CCc3ccccc32)cc1 |  | inactive: -29.5%
61 | Cc1ccccc1C(=O)NNC(=S)NC(=O)c1cccnc1 | inconclusive: 18.5 µM [inhibitor, single point] | 
62 | O=C(CNC(=S)N(Cc1ccccc1)Cc1ccccc1F)NCCc1ccccc1 | inconclusive: 2.33 µM [inhibitor, full curve] | 
63 | N#Cc1nc(Cc2cccc3ccccc23)oc1NCc1ccc(F)cc1 | inconclusive: 11.7 µM [inhibitor, partial curve] | 
64 | O=S(=O)(NCc1ccccn1)C(F)(F)F | inconclusive: 10.4 µM [inhibitor, single point] | 
65 | C#CCOC(=O)C[N+](C)(C)CC#Cc1ccccc1 | inconclusive: 10.4 µM [inhibitor, partial curve, poor fit] | 
66 | O=C(O)C(Cc1c[nH]c2ccccc12)NS(=O)(=O)c1cccc2nsnc12 (centres undefined) |  | inactive: 12.7%
67 | Cc1nc(NC2=NCN(C3CCCCC3C)CN2)nc2ccccc12 (centres undefined) | inconclusive: 10.4 µM [inhibitor, partial curve] | 
68 | Cc1nc(N/N=C\c2ccc3c(c2)OCO3)sc1C |  | inactive: -1.31%
69 | O=C1COc2ccc(S(=O)(=O)N3CCCCCC3)cc2N1 |  | inactive: 43.5%
70 | O=C(CCCN1C(=O)c2ccccc2C1=O)Nc1nnc(C2CC2)s1 |  | inactive: 10.4%
71 | O=C(Nc1cc(Cl)cc(Cl)c1)N1CCCN(Cc2ccccc2)CC1 | inconclusive: 9.28 µM [inhibitor, partial curve] | 
72 | COc1ccc(-n2c(C)c(C)c3c(NCCCO)ncnc32)cc1 |  | inactive: 9.01%
73 | Cc1ccc(C)c(NS(=O)(=O)c2ccc3[nH]c(=O)oc3c2)c1 |  | inactive: 9.58%
74 | Cc1c(NC(=O)CN2C(=O)NC3(CCC(C)CC3)C2=O)c(=O)n(-c2ccccc2)n1C (centres undefined) |  | inactive: -5.35%
